{"source": "PubChem BioAssay AID652259 (Drosophila RNAi Screening Center, 2013)", "purpose": "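Identify new Wingless signalling regulators in fly cells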 (primary screen)", "cell system": "Drosophila clone 8 imaginal disc epithelial cells", "reagent": "long dsRNA against Drosophila genes", "challenge": "pathway stimulated by co-transfected Wingless expression plasmid", "measured": "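Firefly luciferase from a tcf-site Wingless reporter, measured alongside co-transfected Renilla luciferase that tracks transfection; pathway stimulated by a Wingless plasmid; the firefly-to-Renilla ratio is not deposited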", "direction": "firefly reporter light: higher = more Wg reporter light, before normalisation; Renilla control light: higher = more transfected or surviving cells", "hit rule": "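Strong candidates differ from their plate mean by at least two out of four per-plate statistical tests; weak candidates meet just one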", "meaning of the calls": "active = candidate regulator (raises or lowers reporter); inactive = not a candidate", "note": "In all, the deposit lists about 22,000 reagents; below is an unselected part of those that have a named target and a result. Of all reagents, 233 (1.1%) are marked active. 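Light values are raw, unnormalised plate reads; the ratio scores behind the reporter calls were not deposited.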 Entries without a mark were called inactive. Not given: the amount of reagent, the time to read-out, the dose of the treatment."}
{"gene": "CG7264", "PubChem SID": "SID104190585", "firefly reporter light, replicate 1": 6134, "Renilla control light, replicate 1": 2129}
{"gene": "ksr (kinase suppressor of ras)", "PubChem SID": "SID104192171", "firefly reporter light, replicate 1": 16339, "Renilla control light, replicate 1": 3015}
{"gene": "CG32333", "PubChem SID": "SID104188419", "firefly reporter light, replicate 1": 16520, "Renilla control light, replicate 1": 4635}
{"gene": "CG32333", "PubChem SID": "SID104188421", "firefly reporter light, replicate 1": 3210, "Renilla control light, replicate 1": 1036}
{"gene": "E(spl)mbeta-HLH (Enhancer of split mbeta, helix-loop-helix)", "PubChem SID": "SID104196489", "firefly reporter light, replicate 1": 1712, "firefly reporter light, replicate 2": 7264, "Renilla control light, replicate 1": 664, "Renilla control light, replicate 2": 2960}
{"gene": "CG2147", "PubChem SID": "SID104198003", "firefly reporter light, replicate 1": 2823, "firefly reporter light, replicate 2": 5552, "Renilla control light, replicate 1": 297, "Renilla control light, replicate 2": 1676}
{"gene": "CG32650", "PubChem SID": "SID104199691", "firefly reporter light, replicate 1": 2589, "firefly reporter light, replicate 2": 7048, "Renilla control light, replicate 1": 776, "Renilla control light, replicate 2": 1433}
{"gene": "Cyp9h1 (Cytochrome P450 9h1)", "PubChem SID": "SID104187183", "firefly reporter light, replicate 1": 6360, "Renilla control light, replicate 1": 1952}
{"gene": "Drgx (Dorsal root ganglia homeobox)", "PubChem SID": "SID104180070", "firefly reporter light, replicate 1": 2748, "firefly reporter light, replicate 2": 6135, "Renilla control light, replicate 1": 1062, "Renilla control light, replicate 2": 2344}
{"gene": "Drgx (Dorsal root ganglia homeobox)", "PubChem SID": "SID104180329", "firefly reporter light, replicate 1": 2780, "firefly reporter light, replicate 2": 8377, "Renilla control light, replicate 1": 892, "Renilla control light, replicate 2": 3029}
{"gene": "Prosbeta2R2 (Proteasome beta2 subunit-related 2)", "PubChem SID": "SID104191985", "firefly reporter light, replicate 1": 13825, "Renilla control light, replicate 1": 1987}
{"gene": "a5 (antennal protein 5)", "PubChem SID": "SID104180590", "firefly reporter light, replicate 1": 2919, "firefly reporter light, replicate 2": 7328, "Renilla control light, replicate 1": 887, "Renilla control light, replicate 2": 2208}
{"gene": "Dhit (Double hit)", "PubChem SID": "SID104187203", "firefly reporter light, replicate 1": 14322, "Renilla control light, replicate 1": 3209}
{"gene": "CrebB (Cyclic-AMP response element binding protein B)", "PubChem SID": "SID104200024", "firefly reporter light, replicate 1": 23585, "Renilla control light, replicate 1": 8000}
{"gene": "CG13229", "PubChem SID": "SID104186141", "firefly reporter light, replicate 1": 5146, "Renilla control light, replicate 1": 3301}
{"gene": "QIL1", "PubChem SID": "SID104190680", "firefly reporter light, replicate 1": 5520, "Renilla control light, replicate 1": 3056}
{"gene": "Dd (Dullard)", "PubChem SID": "SID104200331", "firefly reporter light, replicate 1": 3010, "firefly reporter light, replicate 2": 6442, "Renilla control light, replicate 1": 1285, "Renilla control light, replicate 2": 3813}
{"gene": "CG3355", "PubChem SID": "SID104180390", "firefly reporter light, replicate 1": 2146, "firefly reporter light, replicate 2": 3975, "Renilla control light, replicate 1": 666, "Renilla control light, replicate 2": 1026}
{"gene": "PheRS-m (Phenylalanyl-tRNA synthetase, mitochondrial)", "PubChem SID": "SID104185707", "firefly reporter light, replicate 1": 14619, "Renilla control light, replicate 1": 4324}
{"gene": "sp3 (spermathreecae)", "PubChem SID": "SID104196146", "firefly reporter light, replicate 1": 32199, "Renilla control light, replicate 1": 6388}
{"gene": "CG13226", "PubChem SID": "SID104186138", "firefly reporter light, replicate 1": 5968, "Renilla control light, replicate 1": 1786}
{"gene": "CG7387", "PubChem SID": "SID104190625", "firefly reporter light, replicate 1": 3318, "Renilla control light, replicate 1": 1388}
{"gene": "Orc5 (Origin recognition complex subunit 5)", "PubChem SID": "SID104183182", "firefly reporter light, replicate 1": 1416, "firefly reporter light, replicate 2": 4600, "Renilla control light, replicate 1": 805, "Renilla control light, replicate 2": 2257}
{"gene": "CG12768", "PubChem SID": "SID104191472", "reporter change call, replicate 1": "Wg reporter activity raised (active)", "firefly reporter light, replicate 1": 22808, "Renilla control light, replicate 1": 3264}
{"gene": "Lcp1 (Larval cuticle protein 1)", "PubChem SID": "SID104187247", "firefly reporter light, replicate 1": 3760, "firefly reporter light, replicate 2": 7203, "Renilla control light, replicate 1": 803, "Renilla control light, replicate 2": 1222}

Sorted by “firefly reporter light, replicate 1” (lowest first): 3 of the entries above.
{"gene": "Orc5 (Origin recognition complex subunit 5)", "PubChem SID": "SID104183182", "firefly reporter light, replicate 1": 1416, "firefly reporter light, replicate 2": 4600, "Renilla control light, replicate 1": 805, "Renilla control light, replicate 2": 2257}
{"gene": "CG7387", "PubChem SID": "SID104190625", "firefly reporter light, replicate 1": 3318, "Renilla control light, replicate 1": 1388}
{"gene": "CG12768", "PubChem SID": "SID104191472", "reporter change call, replicate 1": "Wg reporter activity raised (active)", "firefly reporter light, replicate 1": 22808, "Renilla control light, replicate 1": 3264}
